# Source: the supplement of paper PMC8728848
# The list shows a part of the results.
# B1: Epa3to2 (Candida glabrata) (protein)
# chain: MGSSHHHHHHSSGLVPRGSHMKRELSSQNPFGYPIGCSPQDVAIIPGLTMELYSYPIVSGTPPNCYDASYVDPEYPRTGYLKRKMVGKSTGVTGNLNYKYSVEKACMVKYGNLPAGYNYNEPLTVSNFTMILYGYFKAQTTGLHTFFVNADDLLYINFGAGNAFDCCKREDSKTKLGEYVAYDIWHVDSSKNKVSLFLEKDLYYPIRMFFNNRDNNSSLDLSFSVNGATDQISDFSGYLYSVPDQPDTCPAHIGYDTTCR
# Key:
# Assay in all cases: glycan array binding signal (z-score within array); higher = stronger binding
# Settings in all cases: glycan notation: IUPAC condensed, linker removed
# [1] = biological target: GlcNAc(b1-3)Gal(b1-4)GlcNAc(b1-3)Gal(b1-4)GlcNAc(b1-2)Man(a1-3)[GlcNAc(b1-3)Gal(b1-4)GlcNAc(b1-3)Gal(b1-4)GlcNAc(b1-2)Man(a1-6)]Man(b1-4)GlcNAc(b1-4)[Fuc(a1-6)]GlcNAc
# Procedure, shortened: (§1)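 Glycan array binding is given as a within-array Z-score, which can be read as non-binding when negative. The arrays, 3228 of them, came from the Consortium for Functional Glycomics database and were retained only where the protein sequence was available. Z-scores were averaged across arrays of the same protein sequence at different concentrations or buffers and across linkers.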
# [2] = biological target: GlcNAc(b1-3)Gal(b1-4)GlcNAc(b1-3)Gal(b1-4)GlcNAc(b1-2)[GlcNAc(b1-3)Gal(b1-4)GlcNAc(b1-3)Gal(b1-4)GlcNAc(b1-6)]Man(a1-6)[GlcNAc(b1-3)Gal(b1-4)GlcNAc(b1-3)Gal(b1-4)GlcNAc(b1-2)Man(a1-3)]Man(b1-4)GlcNAc(b1-4)[Fuc(a1-6)]GlcNAc
# Procedure, shortened: as §1
# [3] = biological target: GlcNAc(b1-3)Gal(b1-4)GlcNAc(b1-3)Gal(b1-4)GlcNAc(b1-3)Gal(b1-4)GlcNAc(b1-2)Man(a1-3)[GlcNAc(b1-3)Gal(b1-4)GlcNAc(b1-3)Gal(b1-4)GlcNAc(b1-3)Gal(b1-4)GlcNAc(b1-2)Man(a1-6)]Man(b1-4)GlcNAc(b1-4)GlcNAc
# Procedure, shortened: as §1
# [4] = biological target: GlcNAc(b1-3)Gal(b1-4)GlcNAc(b1-3)Gal(b1-4)GlcNAc(b1-3)Gal(b1-4)GlcNAc(b1-2)Man(a1-3)[GlcNAc(b1-3)Gal(b1-4)GlcNAc(b1-3)Gal(b1-4)GlcNAc(b1-3)Gal(b1-4)GlcNAc(b1-2)Man(a1-6)]Man(b1-4)GlcNAc(b1-4)[Fuc(a1-6)]GlcNAc
# Procedure, shortened: as §1
# [5] = biological target: GlcNAc(b1-3)Gal(b1-4)GlcNAc(b1-3)Gal(b1-4)GlcNAc(b1-3)Gal(b1-4)GlcNAc(b1-2)[GlcNAc(b1-3)Gal(b1-4)GlcNAc(b1-3)Gal(b1-4)GlcNAc(b1-3)Gal(b1-4)GlcNAc(b1-6)]Man(a1-6)[GlcNAc(b1-3)Gal(b1-4)GlcNAc(b1-3)Gal(b1-4)GlcNAc(b1-3)Gal(b1-4)GlcNAc(b1-2)Man(a1-3)]Man(b1-4)GlcNAc(b1-4)[Fuc(a1-6)]GlcNAc
# Procedure, shortened: as §1
# [6] = biological target: GlcNAc(b1-3)Gal(b1-4)GlcNAc(b1-3)Gal(b1-4)GlcNAc(b1-3)Gal(b1-4)GlcNAc(b1-3)Gal(b1-4)GlcNAc(b1-2)Man(a1-3)[GlcNAc(b1-3)Gal(b1-4)GlcNAc(b1-3)Gal(b1-4)GlcNAc(b1-3)Gal(b1-4)GlcNAc(b1-3)Gal(b1-4)GlcNAc(b1-2)Man(a1-6)]Man(b1-4)GlcNAc(b1-4)GlcNAc
# Procedure, shortened: as §1
# [7] = biological target: GlcNAc(b1-3)Gal(b1-4)GlcNAc(b1-3)Gal(b1-4)GlcNAc(b1-3)Gal(b1-4)GlcNAc(b1-3)Gal(b1-4)GlcNAc(b1-2)Man(a1-3)[GlcNAc(b1-3)Gal(b1-4)GlcNAc(b1-3)Gal(b1-4)GlcNAc(b1-3)Gal(b1-4)GlcNAc(b1-3)Gal(b1-4)GlcNAc(b1-2)Man(a1-6)]Man(b1-4)GlcNAc(b1-4)[Fuc(a1-6)]GlcNAc
# Procedure, shortened: as §1
# [8] = biological target: GlcNAc(b1-3)Gal(b1-4)GlcNAc(b1-3)Gal(b1-4)GlcNAc(b1-3)Gal(b1-4)GlcNAc(b1-3)Gal(b1-4)GlcNAc(b1-2)[GlcNAc(b1-3)Gal(b1-4)GlcNAc(b1-3)Gal(b1-4)GlcNAc(b1-3)Gal(b1-4)GlcNAc(b1-3)Gal(b1-4)GlcNAc(b1-6)]Man(a1-6)[GlcNAc(b1-3)Gal(b1-4)GlcNAc(b1-3)Gal(b1-4)GlcNAc(b1-3)Gal(b1-4)GlcNAc(b1-3)Gal(b1-4)GlcNAc(b1-2)Man(a1-3)]Man(b1-4)GlcNAc(b1-4)[Fuc(a1-6)]GlcNAc
# Procedure, shortened: as §1
# [9] = biological target: GlcNAc(b1-3)Gal(b1-4)GlcNAc(b1-3)Gal(b1-4)GlcNAc(b1-3)GalNAc
# Procedure, shortened: as §1
# [10] = biological target: GlcNAc(b1-3)Gal(b1-4)GlcNAc(b1-3)GalNAc
# Procedure, shortened: as §1
# [11] = biological target: GlcNAc(b1-3)Gal(b1-4)GlcNAc(b1-3)[GlcNAc(b1-3)Gal(b1-4)GlcNAc(b1-3)]GalNAc
# Procedure, shortened: as §1
# [12] = biological target: GlcNAc(b1-3)Gal(b1-4)GlcNAc(b1-6)[Gal(b1-3)]GalNAc
# Procedure, shortened: as §1
# [13] = biological target: GlcNAc(b1-3)Gal(b1-4)GlcNAc(b1-6)[GlcNAc(b1-3)Gal(b1-3)]GalNAc
# Procedure, shortened: as §1
# [14] = biological target: GlcNAc(b1-3)Gal(b1-4)GlcNAc(b1-6)[GlcNAc(b1-3)]Gal(b1-4)GlcNAc
# Procedure, shortened: as §1
# GlcNAc(b1-3)GalNAc = biological target: GlcNAc(b1-3)GalNAc
# Procedure, shortened: as §1
# GlcNAc(b1-3)Man = biological target: GlcNAc(b1-3)Man
# Procedure, shortened: as §1
# [15] = biological target: GlcNAc(b1-3)[GlcNAc(b1-4)][GlcNAc(b1-6)]GlcNAc
# Procedure, shortened: as §1
# [16] = biological target: GlcNAc(b1-3)[GlcNAc(b1-6)]Gal(b1-4)GlcNAc
# Procedure, shortened: as §1
# [17] = biological target: GlcNAc(b1-3)[GlcNAc(b1-6)]GalNAc
# Procedure, shortened: as §1
# [18] = biological target: GlcNAc(b1-4)Gal(b1-4)GlcNAc
# Procedure, shortened: as §1
# GlcNAc(b1-4)GlcNAc = biological target: GlcNAc(b1-4)GlcNAc
# Procedure, shortened: as §1
# [19] = biological target: GlcNAc(b1-4)GlcNAc(b1-4)GlcNAc
# Procedure, shortened: as §1
# [20] = biological target: GlcNAc(b1-4)GlcNAc(b1-4)GlcNAc(b1-4)GlcNAc(b1-4)GlcNAc
# Procedure, shortened: as §1
# [21] = biological target: GlcNAc(b1-4)GlcNAc(b1-4)GlcNAc(b1-4)GlcNAc(b1-4)GlcNAc(b1-4)GlcNAc
# Procedure, shortened: as §1
# [22] = biological target: GlcNAc(b1-4)[GlcNAc(b1-6)]GalNAc
# Procedure, shortened: as §1
# [23] = biological target: GlcNAc(b1-6)Gal(b1-4)GlcNAc
# Procedure, shortened: as §1
# GlcNAc(b1-6)GalNAc = biological target: GlcNAc(b1-6)GalNAc
# Procedure, shortened: as §1
# [24] = biological target: GlcNAc6S(b1-3)Gal(b1-4)GlcNAc
# Procedure, shortened: as §1
# Kdn(a2-3)Gal(b1-3)GalNAc = biological target: Kdn(a2-3)Gal(b1-3)GalNAc
# Procedure, shortened: as §1
# Kdn(a2-3)Gal(b1-3)GlcNAc = biological target: Kdn(a2-3)Gal(b1-3)GlcNAc
# Procedure, shortened: as §1
# Kdn(a2-3)Gal(b1-4)Glc = biological target: Kdn(a2-3)Gal(b1-4)Glc
# Procedure, shortened: as §1
# Kdn(a2-3)Gal(b1-4)GlcNAc = biological target: Kdn(a2-3)Gal(b1-4)GlcNAc
# Procedure, shortened: as §1
# [25] = biological target: Kdn(a2-3)Gal(b1-4)[Fuc(a1-3)]GlcNAc
# Procedure, shortened: as §1
# Kdn(a2-6)Gal(b1-4)GlcNAc = biological target: Kdn(a2-6)Gal(b1-4)GlcNAc
# Procedure, shortened: as §1
# [26] = biological target: Man(a1-2)Man(a1-2)Man(a1-3)Man
# Procedure, shortened: as §1
# [27] = biological target: Man(a1-2)Man(a1-2)Man(a1-6)[Man(a1-3)]Man
# Procedure, shortened: as §1
# Man(a1-2)Man(a1-3)Man = biological target: Man(a1-2)Man(a1-3)Man
# Procedure, shortened: as §1
# [28] = biological target: Man(a1-2)Man(a1-3)[Man(a1-2)Man(a1-6)]Man
# Procedure, shortened: as §1
binder,measurement,setting,value
B1,glycan array binding signal (z-score),[1],0.358
same,glycan array binding signal (z-score),[2],-0.039
same,glycan array binding signal (z-score),[3],0.075
same,glycan array binding signal (z-score),[4],1.19
same,glycan array binding signal (z-score),[5],-0.422
same,glycan array binding signal (z-score),[6],-0.038
same,glycan array binding signal (z-score),[7],1.62
same,glycan array binding signal (z-score),[8],0.146
same,glycan array binding signal (z-score),[9],-0.509
same,glycan array binding signal (z-score),[10],0.312
same,glycan array binding signal (z-score),[11],-0.512
same,glycan array binding signal (z-score),[12],0.756
same,glycan array binding signal (z-score),[13],-1.78
same,glycan array binding signal (z-score),[14],-0.506
same,glycan array binding signal (z-score),GlcNAc(b1-3)GalNAc,-1.42
same,glycan array binding signal (z-score),GlcNAc(b1-3)Man,1.38
same,glycan array binding signal (z-score),[15],0.374
same,glycan array binding signal (z-score),[16],-0.215
same,glycan array binding signal (z-score),[17],-0.556
same,glycan array binding signal (z-score),[18],-0.138
same,glycan array binding signal (z-score),GlcNAc(b1-4)GlcNAc,1.27
same,glycan array binding signal (z-score),[19],-1.13
same,glycan array binding signal (z-score),[20],0.341
same,glycan array binding signal (z-score),[21],-0.884
same,glycan array binding signal (z-score),[22],-0.67
same,glycan array binding signal (z-score),[23],0.628
same,glycan array binding signal (z-score),GlcNAc(b1-6)GalNAc,0.08
same,glycan array binding signal (z-score),[24],0.752
same,glycan array binding signal (z-score),Kdn(a2-3)Gal(b1-3)GalNAc,0.108
same,glycan array binding signal (z-score),Kdn(a2-3)Gal(b1-3)GlcNAc,1.72
same,glycan array binding signal (z-score),Kdn(a2-3)Gal(b1-4)Glc,-0.039
same,glycan array binding signal (z-score),Kdn(a2-3)Gal(b1-4)GlcNAc,-0.611
same,glycan array binding signal (z-score),[25],-0.049
same,glycan array binding signal (z-score),Kdn(a2-6)Gal(b1-4)GlcNAc,1.52
same,glycan array binding signal (z-score),[26],-0.08
same,glycan array binding signal (z-score),[27],0.924
same,glycan array binding signal (z-score),Man(a1-2)Man(a1-3)Man,-0.593
same,glycan array binding signal (z-score),[28],-0.234

# Random excerpt: two entries already listed, in no set order.
binder,measurement,setting,value
B1,glycan array binding signal (z-score),Kdn(a2-3)Gal(b1-3)GlcNAc,1.72
same,glycan array binding signal (z-score),[23],0.628
